Results taken from publication PMC8682746.
No constants are given. Whether binding was seen depends on the method and setting. In cells and extracts the contact can be indirect. A yes stands for co-enrichment or nearness to the bait. Other partners may have been found. Values belong to the molecule of their own block, whether it stands above or below them.

By UniProt entry, the sequences of proteins in these tests, tags left out. Where a name states a change or a piece, a line headed by the entry shows the natural chain unless it says otherwise.
UniProt Q389W0: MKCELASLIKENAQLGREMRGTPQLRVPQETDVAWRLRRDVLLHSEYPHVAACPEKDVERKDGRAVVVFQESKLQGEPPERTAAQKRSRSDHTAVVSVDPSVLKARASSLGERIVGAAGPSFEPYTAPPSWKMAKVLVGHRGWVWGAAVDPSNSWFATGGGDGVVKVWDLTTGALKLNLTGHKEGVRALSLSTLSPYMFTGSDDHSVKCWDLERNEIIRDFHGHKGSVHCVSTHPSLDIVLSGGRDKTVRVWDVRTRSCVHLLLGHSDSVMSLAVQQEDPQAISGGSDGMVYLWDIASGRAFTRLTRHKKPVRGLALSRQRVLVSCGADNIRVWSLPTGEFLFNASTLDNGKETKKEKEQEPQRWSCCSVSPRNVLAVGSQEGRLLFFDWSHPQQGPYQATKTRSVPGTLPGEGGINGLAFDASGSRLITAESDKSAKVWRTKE
UniProt Q382C2: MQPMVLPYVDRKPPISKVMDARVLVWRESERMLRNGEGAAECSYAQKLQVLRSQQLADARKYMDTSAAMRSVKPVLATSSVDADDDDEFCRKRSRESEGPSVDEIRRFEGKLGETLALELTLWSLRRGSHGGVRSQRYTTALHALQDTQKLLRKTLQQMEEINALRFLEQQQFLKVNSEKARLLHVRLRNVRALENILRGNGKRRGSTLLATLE
UniProt Q57ZX8: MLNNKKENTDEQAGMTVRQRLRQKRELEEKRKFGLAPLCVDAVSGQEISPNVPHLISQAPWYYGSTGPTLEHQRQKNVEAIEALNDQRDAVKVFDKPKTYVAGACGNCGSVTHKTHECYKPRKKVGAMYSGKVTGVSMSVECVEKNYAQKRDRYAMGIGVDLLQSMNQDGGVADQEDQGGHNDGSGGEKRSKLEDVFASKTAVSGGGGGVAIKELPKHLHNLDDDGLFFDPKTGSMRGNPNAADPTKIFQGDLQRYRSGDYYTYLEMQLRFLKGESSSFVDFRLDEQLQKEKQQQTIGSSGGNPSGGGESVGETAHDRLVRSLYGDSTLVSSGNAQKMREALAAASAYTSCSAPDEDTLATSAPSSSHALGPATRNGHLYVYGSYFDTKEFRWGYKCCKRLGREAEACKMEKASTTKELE
UniProt Q4GYY6: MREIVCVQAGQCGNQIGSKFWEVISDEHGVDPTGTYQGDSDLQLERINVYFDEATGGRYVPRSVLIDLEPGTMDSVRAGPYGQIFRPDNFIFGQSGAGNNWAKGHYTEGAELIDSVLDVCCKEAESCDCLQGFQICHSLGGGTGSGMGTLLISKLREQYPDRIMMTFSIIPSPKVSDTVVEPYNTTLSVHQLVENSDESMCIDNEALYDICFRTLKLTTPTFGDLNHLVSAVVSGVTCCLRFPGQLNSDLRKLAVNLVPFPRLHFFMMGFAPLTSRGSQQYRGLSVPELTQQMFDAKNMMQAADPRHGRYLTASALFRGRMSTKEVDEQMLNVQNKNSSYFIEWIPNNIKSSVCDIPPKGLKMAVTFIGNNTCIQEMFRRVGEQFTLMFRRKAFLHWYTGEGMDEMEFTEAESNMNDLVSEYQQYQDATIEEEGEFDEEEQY
UniProt Q38DR4: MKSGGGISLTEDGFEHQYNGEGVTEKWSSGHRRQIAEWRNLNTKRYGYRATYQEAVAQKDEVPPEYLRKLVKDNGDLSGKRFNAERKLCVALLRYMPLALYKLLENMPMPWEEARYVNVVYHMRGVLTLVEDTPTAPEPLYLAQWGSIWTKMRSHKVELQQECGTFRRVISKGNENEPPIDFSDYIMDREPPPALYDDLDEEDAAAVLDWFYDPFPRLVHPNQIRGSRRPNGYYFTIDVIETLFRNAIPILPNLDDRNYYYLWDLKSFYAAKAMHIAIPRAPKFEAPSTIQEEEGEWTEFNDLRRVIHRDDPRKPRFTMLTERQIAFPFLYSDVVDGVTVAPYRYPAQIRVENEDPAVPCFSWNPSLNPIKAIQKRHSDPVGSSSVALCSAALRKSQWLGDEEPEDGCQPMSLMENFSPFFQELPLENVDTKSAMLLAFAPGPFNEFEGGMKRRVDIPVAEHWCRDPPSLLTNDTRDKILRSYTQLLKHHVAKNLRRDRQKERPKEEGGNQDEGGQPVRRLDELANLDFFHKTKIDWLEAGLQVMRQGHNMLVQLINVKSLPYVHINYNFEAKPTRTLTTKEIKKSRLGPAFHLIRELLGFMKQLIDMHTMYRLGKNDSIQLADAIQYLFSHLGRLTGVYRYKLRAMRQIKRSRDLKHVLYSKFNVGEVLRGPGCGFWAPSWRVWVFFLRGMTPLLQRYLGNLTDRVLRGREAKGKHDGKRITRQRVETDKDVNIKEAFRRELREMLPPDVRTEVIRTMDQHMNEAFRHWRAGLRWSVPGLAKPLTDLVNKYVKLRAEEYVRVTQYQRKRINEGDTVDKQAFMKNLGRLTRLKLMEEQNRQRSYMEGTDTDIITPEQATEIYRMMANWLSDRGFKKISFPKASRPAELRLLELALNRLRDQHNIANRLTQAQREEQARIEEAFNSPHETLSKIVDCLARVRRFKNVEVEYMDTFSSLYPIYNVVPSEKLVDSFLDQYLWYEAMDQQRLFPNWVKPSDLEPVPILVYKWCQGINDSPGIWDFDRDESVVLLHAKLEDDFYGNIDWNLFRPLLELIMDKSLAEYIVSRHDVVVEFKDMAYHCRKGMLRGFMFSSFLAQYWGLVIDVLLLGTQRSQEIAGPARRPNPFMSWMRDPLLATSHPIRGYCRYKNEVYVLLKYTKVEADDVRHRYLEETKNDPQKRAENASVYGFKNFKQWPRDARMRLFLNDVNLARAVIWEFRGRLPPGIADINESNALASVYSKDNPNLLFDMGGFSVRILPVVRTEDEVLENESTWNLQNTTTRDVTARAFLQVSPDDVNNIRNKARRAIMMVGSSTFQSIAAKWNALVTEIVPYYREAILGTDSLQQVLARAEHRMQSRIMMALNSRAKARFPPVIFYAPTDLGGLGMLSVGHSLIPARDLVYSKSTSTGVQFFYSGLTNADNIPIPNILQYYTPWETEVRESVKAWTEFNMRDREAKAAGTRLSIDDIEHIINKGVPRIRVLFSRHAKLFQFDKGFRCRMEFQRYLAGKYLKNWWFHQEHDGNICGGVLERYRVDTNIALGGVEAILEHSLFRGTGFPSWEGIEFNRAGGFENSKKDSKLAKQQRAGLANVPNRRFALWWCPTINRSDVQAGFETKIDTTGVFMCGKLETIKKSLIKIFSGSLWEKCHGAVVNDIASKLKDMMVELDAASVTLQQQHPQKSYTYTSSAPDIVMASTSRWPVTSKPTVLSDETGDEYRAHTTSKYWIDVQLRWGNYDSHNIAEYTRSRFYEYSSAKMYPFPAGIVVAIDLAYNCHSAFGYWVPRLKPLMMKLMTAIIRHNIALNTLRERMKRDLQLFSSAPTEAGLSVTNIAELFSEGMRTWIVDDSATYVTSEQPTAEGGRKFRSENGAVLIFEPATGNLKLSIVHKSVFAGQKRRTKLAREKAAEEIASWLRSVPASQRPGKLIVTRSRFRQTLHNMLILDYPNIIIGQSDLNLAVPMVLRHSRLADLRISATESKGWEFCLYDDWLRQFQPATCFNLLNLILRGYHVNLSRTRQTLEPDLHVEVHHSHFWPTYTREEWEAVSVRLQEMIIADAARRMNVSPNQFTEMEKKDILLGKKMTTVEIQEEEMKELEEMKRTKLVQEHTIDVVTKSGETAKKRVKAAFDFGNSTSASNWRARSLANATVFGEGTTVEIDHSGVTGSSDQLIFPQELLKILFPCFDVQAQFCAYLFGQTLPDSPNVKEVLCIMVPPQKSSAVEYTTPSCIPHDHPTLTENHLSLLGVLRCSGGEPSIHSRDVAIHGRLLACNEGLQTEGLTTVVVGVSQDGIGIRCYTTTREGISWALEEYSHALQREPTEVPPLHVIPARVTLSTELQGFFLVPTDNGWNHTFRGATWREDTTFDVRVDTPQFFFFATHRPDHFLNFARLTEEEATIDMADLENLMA
UniProt Q383B9: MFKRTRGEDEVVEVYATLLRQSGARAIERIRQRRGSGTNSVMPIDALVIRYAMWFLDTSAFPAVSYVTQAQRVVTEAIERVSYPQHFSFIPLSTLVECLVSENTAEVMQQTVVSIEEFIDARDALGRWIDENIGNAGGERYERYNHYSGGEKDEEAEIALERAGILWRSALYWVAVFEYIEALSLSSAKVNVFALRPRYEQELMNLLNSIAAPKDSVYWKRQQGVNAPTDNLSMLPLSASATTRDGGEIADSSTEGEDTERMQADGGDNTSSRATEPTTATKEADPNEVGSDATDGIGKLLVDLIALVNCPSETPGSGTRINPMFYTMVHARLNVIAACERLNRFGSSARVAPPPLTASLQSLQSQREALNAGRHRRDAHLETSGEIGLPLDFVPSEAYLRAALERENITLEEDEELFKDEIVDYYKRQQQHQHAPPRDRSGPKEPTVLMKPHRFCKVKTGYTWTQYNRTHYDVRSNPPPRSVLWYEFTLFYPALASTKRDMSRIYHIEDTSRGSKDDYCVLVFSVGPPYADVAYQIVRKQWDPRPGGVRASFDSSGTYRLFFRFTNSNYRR
UniProt Q9GYZ3: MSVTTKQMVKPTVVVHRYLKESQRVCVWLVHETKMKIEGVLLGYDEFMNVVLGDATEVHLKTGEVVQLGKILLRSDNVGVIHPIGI
UniProt Q4GYY5: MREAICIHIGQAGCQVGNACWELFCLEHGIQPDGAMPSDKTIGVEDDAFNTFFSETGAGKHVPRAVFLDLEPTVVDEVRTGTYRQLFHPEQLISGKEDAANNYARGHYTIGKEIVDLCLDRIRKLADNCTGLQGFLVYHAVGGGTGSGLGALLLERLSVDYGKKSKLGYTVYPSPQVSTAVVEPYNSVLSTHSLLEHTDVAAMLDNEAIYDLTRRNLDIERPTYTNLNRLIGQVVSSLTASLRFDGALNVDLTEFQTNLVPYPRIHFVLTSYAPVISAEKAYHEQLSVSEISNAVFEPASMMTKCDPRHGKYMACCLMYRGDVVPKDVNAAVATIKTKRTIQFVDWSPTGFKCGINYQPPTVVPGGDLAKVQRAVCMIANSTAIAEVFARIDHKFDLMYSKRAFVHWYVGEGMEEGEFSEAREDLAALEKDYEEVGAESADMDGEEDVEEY
UniProt Q586Q6: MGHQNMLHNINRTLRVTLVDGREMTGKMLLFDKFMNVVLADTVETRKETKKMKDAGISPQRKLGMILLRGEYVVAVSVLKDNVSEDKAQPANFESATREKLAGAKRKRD
UniProt Q581X3: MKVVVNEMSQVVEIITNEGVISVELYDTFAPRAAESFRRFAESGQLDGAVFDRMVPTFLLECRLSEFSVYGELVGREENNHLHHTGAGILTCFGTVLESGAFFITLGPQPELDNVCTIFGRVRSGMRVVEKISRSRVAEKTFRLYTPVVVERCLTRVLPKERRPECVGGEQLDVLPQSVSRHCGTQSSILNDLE
UniProt Q57ZB8: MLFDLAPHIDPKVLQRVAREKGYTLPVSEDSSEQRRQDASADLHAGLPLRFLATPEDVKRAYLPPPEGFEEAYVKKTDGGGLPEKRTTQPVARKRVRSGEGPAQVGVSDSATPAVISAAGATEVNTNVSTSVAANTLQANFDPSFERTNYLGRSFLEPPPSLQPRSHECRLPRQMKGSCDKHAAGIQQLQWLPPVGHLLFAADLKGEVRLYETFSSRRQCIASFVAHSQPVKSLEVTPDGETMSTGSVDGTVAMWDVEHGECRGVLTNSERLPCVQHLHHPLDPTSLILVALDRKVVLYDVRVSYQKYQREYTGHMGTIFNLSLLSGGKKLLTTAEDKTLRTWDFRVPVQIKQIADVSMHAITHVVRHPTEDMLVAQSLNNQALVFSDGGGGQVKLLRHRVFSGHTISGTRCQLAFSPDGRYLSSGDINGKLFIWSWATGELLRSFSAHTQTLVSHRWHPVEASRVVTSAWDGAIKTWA
UniProt Q9GYZ5: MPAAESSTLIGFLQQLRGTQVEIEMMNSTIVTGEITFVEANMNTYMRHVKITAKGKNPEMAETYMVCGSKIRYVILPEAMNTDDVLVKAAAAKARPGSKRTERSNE
UniProt Q383K4: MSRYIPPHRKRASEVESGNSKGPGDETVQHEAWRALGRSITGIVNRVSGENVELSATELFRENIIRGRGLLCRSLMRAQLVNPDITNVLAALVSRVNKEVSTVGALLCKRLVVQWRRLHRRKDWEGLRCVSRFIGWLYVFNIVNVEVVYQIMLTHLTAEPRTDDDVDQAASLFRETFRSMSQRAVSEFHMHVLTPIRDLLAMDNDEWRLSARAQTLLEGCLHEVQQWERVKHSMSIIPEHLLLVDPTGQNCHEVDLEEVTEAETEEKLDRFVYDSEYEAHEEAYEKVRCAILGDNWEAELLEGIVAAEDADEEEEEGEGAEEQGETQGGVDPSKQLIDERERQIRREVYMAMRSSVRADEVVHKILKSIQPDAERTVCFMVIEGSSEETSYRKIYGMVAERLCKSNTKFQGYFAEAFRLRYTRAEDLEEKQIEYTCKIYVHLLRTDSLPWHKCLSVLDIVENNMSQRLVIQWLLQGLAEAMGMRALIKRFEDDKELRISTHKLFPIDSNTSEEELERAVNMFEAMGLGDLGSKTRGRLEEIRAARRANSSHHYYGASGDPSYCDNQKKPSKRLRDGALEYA
UniProt Q9GYZ7: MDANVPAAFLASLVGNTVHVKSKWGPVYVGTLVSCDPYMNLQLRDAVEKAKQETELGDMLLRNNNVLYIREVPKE

Target: PRC5-PTP (Trypanosoma brucei) (UniProt Q386L5)
Assay: affinity purification with mass spectrometry; PRC5-PTP tandem affinity purification from crude extract of TbPRC5-PTPee procyclic trypanosomes (IgG affinity, TEV protease release, anti-ProtC immunoaffinity, elution by calcium chelation); whole gel lane of the final eluate analysed by LC/MS/MS, two comprehensive analyses

binding: binds
Molecule: PRL1 (from UniProt Q389W0)

binding: binds
Molecule: SPF27 (from UniProt Q382C2)

binding: binds
Molecule: ISY1 (from UniProt Q581Y9)

binding: binds
Molecule: SLU7 (from UniProt Q57ZX8)

binding: binds
Molecule: protein encoded by gene Tb927.5.2910 (from UniProt Q57ZW7)

binding: binds
Molecule: Beta tubulin (from UniProt Q4GYY6)

binding: binds
Molecule: SSm4 (from UniProt D6XJG9)

binding: binds
Molecule: protein encoded by gene Tb927.5.990 (from UniProt Q57W44)

binding: binds
Molecule: PRP8 (from UniProt Q38DR4)

binding: binds
B3: LSm8 (protein, UniProt Q6QA14 1-129)
chain: MLSQYLRRRVSVVTVDGRYLVGVLHAADQLMNLVLTSCAERVFDDEAEDSTDPNDIKNNRNGTNGATPPGGEMREHSLGVLMIRGSDVVCVASVNTVEEAKLSRKLWRGRNLPVVERVARSATASVKGG

binding: binds
B4: LSm7 (protein, UniProt Q6QA15 1-92)
chain: MSAQQAHILKKKESILSLEPHLDRRVVVSLEDREVHGVLKGFDNNINLVLANAEIWNKDVRERQIGACVVRGGLLVSVSSGDTAILQQNPFQ

Second part, the molecule before the results:

Molecule: PABP2 (from UniProt O96971)
binding: binds

Molecule: SYF3 (from UniProt Q38A09)
binding: binds

Molecule: Cactin (from UniProt Q383B9)
binding: binds

Molecule: SmD2 (from UniProt Q586C5)
binding: binds

Molecule: SmE (from UniProt Q9GYZ3)
binding: binds

Molecule: PRP19 (from UniProt Q585U7)
binding: binds

Molecule: SSm2-1 (Sm15K) (from UniProt D6XIG3)
binding: binds

Molecule: Alpha tubulin (from UniProt Q4GYY5)
binding: binds

Molecule: SmB (from UniProt Q586Q6)
binding: binds

Molecule: CDC5 (from UniProt Q57ZS5)
binding: binds

Molecule: BRR2 (U5-200K) (from UniProt Q582D6)
binding: binds

Molecule: PPIL1 (from UniProt Q581X3)
binding: binds

Molecule: PPIL3 (from UniProt Q38DM0)
binding: binds

Molecule: PRP17 (from UniProt Q57ZB8)
binding: binds

Molecule: protein encoded by gene Tb927.4.3540 (from UniProt Q585J6)
binding: binds

Molecule: SmD1 (from UniProt Q9GYZ5)
binding: binds

Molecule: Cwc21 (from UniProt Q38FI2)
binding: binds

Molecule: AD002, CWC15 (from UniProt Q389E7)
binding: binds

Molecule: SSm2.2 (U2-16.5K) (from UniProt Q38BA6)
binding: binds

Molecule: CWC22 (from UniProt Q383K4)
binding: binds

Molecule: SmF (from UniProt Q9GYZ7)
binding: binds

B1: LSm4 (protein, UniProt Q6QA18 1-127)
chain: MSVRKPITPLDVLRNCRAKVVSVELAGGETINGTVVRVDRAMNMVLKQCIRTSADGEAFWRSRESLIRGASVRNVRMDERAVIIADAQLREVTSKSKNKNRVKAKSNDKQQGERKATLSGEKRNRGK
binding: binds

B2: LSm3 (protein, UniProt Q6QA19 1-81)
chain: MDPFVFLLQSVDCPVRVHTVNRETTSGTLLAVDDHCNIMLKDWSTTGHLPSIEGAAPASLRFIRGEQIRTITLAPQSYQVN
binding: binds
